Data published in patent publication EP3002287B1, “Thiochromeno[2,3-c]quinolin-12-one derivatives and their use as topoisomerase inhibitors” (National Defense Medical Center, priority 2014, dated 2016).

Tested on: 60 cell lines
Assay: NCI in vitro 60-cell drug screen (SRB assay), whole panel statistics
Conditions: 10^-5 molar concentration, 48 hours; for Growth percent, Delta: delta over the cell panel; for Growth percent, Range: range over the cell panel

SMILES: O=c1c2cc(Cl)ccc2sc2c(N3CCN(c4ccccc4)CC3)nc3ccccc3c12 [Compound 12, 10-Chloro-6-(4-phenylpiperazin-1-yl)-12H-thiochromeno[2,3-c] quinolin-12-one]
- Growth percent, Delta: 35.45%
- Growth percent, Range: 60.10%

SMILES: O=c1c2cc(Cl)ccc2sc2c(N3CCN(Cc4ccccc4)CC3)nc3ccccc3c12 [Compound 11, 6-(4-Benzylpiperazin-1-yl)-10-chloro-12H-thiochromeno[2,3-c]q uinolin-12-one]
- Growth percent, Delta: 31.28%
- Growth percent, Range: 60.08%

SMILES: COc1nc2ccccc2c2c(=O)c3cc(Cl)ccc3sc12 [Compound 5, 10-Chloro-6-methoxy-12H-thiochromeno[2,3-c]quinolin-12-one]
- Growth percent, Delta: 39.82%
- Growth percent, Range: 61.02%

SMILES: O=c1c2cc(Cl)ccc2sc2c(O)nc3ccccc3c12 [Compound 4, 10-Chloro-6-hydroxy-12H-thiochromeno[2,3-c]quinolin-12-one]
- Growth percent, Delta: 30.54%
- Growth percent, Range: 50.31%

SMILES: O=c1c2cc(Cl)ccc2sc2c(N3CCN(CCO)CC3)nc3ccccc3c12 [Compound 10, 10-Chloro-6-(4-(2-hydroxyethyl)piperazin-1-yl)-12H-thiochrom eno[2,3-c]quinolin-12one]
- Growth percent, Delta: 48.59%
- Growth percent, Range: 83.73%

SMILES: O=c1c2cc(Cl)ccc2sc2c(N3CCOCC3)nc3ccccc3c12 [Compound 13, 10-Chloro-6-morpholino-12H-thiochromeno[2,3-c]quinolin-12-one]
- Growth percent, Delta: 50.85%
- Growth percent, Range: 79.17%

SMILES: O=c1c2ccc(Cl)cc2sc2c(Cl)nc3ccccc3c12 [Compound 3, 6,9-Dichloro-12H-thiochromeno[2,3-c]quinolin-12-one]
- Growth percent, Delta: 32.05%
- Growth percent, Range: 57.22%

SMILES: CN(C)c1nc2ccccc2c2c(=O)c3cc(Cl)ccc3sc12 [Compound 6, 10-Chloro-6-dimethylamino-12H-thiochromeno[2,3-c]quinolin-12-one]
- Growth percent, Delta: 65.30%
- Growth percent, Range: 93.93%

SMILES: CN1CCN(c2nc3ccccc3c3c(=O)c4cc(Cl)ccc4sc23)CC1 [Compound 8, 10-Chloro-6-(4-methylpiperazin-1-yl)-12H-thiochromeno[2,3-c]q uinolin-12-one]
- Growth percent, Delta: 68.64%
- Growth percent, Range: 92.74%

SMILES: O=C(O)c1c(Sc2ccc(Cl)cc2)c(O)nc2ccccc12 [Compound 2, 3-((4-Chlorophenyl)thio)-2-hydroxyquinoline-4-carboxylic acid]
- Growth percent, Delta: 33.20%
- Growth percent, Range: 55.29%
